Some results were stated once for a whole list of compounds, not compound by compound. At least one structure is not confirmed: it was looked up by name or label, or the drawing left a doubt.
System: antibody against 3kPZS (polyclonal antiserum L286)
Experiment: ELISA cross-reactivity of the antiserum
Type: binding, rabbit
Conditions: relative to 3kPZS standard
Procedure: Plates were coated with polyclonal goat anti-rabbit IgG (Sigma; product code R2004) by adding 120 μL of antibody diluted in 0.05 M potassium phosphate buffer, pH 7.4 to each well and incubating overnight at 4° C. The plates were blocked by addition of 100 μL of 3% BSA in 0.1 M potassium phosphate buffered saline and storage at 4° C. for at least 12 h.
Non-specific binding (NSB) and maximum binding (B0) were measured in separate wells. Water washings, extracts, or HPLC fractions were diluted 20 times in assay buffer and 100 μL added to wells in duplicate; 50 μL of the diluted enzyme label (1:2000) was added to all wells and 50 μL of primary antibody (1:500,000) was added to all but NSB wells. Plates were incubated for 2 h at room temperature in a humid chamber. Then, after rinsing three times with wash buffer, 200 μL Ellmans reagent (4.3 mg DTNB, and 4 mg acetyl thiocholine in 20 mL 0.02 M potassium phosphate buffer) was added to each well. The plates were sealed and incubated overnight at room temperature in a humid chamber.
To test the cross-reactivity of the antibody to structurally related compounds, serial dilutions of ACA, PZ, PZS, CA, 3kACA, and 3kPZ were assayed alongside the 3kPZS standard.

## C[C@H](CCCO)[C@H]1CC[C@H]2[C@@H]3[C@H](O)C[C@H]4C[C@H](O)CC[C@]4(C)[C@H]3C[C@H](O)[C@]12C [PZ, 5-cholane-3α,7α,12α,24-tetrol]
  cross-reaction with the antiserum: less than 0.2%
